Binding data for seven molecules are collected here from paper doi:10.1101/2025.01.09.632146.

Amino acid sequences for entries named in this document (tags omitted). A change or cut given only in a name is not applied to a line headed by its entry.
UniProt Q01474: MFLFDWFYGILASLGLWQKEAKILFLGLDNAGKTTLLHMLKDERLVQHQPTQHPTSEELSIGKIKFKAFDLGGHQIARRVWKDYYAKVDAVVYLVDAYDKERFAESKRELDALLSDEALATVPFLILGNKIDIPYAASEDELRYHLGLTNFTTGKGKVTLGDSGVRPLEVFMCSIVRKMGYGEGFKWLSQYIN
UniProt Q9SRI1: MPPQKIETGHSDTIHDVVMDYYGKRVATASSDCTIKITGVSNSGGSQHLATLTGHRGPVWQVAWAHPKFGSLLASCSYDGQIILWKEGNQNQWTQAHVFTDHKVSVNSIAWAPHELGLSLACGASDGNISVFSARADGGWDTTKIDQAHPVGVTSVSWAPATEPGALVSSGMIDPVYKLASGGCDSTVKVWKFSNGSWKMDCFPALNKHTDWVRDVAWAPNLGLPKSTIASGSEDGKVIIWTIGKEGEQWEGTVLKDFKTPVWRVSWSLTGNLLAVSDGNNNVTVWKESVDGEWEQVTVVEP
UniProt Q9CAT6: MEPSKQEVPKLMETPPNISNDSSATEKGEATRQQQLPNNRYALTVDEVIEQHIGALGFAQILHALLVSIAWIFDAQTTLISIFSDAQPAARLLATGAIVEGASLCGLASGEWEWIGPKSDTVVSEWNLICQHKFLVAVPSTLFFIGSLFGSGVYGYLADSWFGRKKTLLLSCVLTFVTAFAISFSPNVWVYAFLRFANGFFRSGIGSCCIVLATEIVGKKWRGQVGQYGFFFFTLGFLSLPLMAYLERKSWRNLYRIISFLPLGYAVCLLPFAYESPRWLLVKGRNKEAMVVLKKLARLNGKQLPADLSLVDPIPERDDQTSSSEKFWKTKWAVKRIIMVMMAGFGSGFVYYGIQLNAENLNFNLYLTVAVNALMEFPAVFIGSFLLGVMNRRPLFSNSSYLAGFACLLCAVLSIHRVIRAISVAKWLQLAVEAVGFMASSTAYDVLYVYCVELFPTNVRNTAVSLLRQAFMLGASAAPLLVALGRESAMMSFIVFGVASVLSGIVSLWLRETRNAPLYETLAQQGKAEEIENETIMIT

The target of experiment [1] is T1, AtPHT1;1-CubPLV (Arabidopsis thaliana) (UniProt Q8VYM2).
T1 sequence: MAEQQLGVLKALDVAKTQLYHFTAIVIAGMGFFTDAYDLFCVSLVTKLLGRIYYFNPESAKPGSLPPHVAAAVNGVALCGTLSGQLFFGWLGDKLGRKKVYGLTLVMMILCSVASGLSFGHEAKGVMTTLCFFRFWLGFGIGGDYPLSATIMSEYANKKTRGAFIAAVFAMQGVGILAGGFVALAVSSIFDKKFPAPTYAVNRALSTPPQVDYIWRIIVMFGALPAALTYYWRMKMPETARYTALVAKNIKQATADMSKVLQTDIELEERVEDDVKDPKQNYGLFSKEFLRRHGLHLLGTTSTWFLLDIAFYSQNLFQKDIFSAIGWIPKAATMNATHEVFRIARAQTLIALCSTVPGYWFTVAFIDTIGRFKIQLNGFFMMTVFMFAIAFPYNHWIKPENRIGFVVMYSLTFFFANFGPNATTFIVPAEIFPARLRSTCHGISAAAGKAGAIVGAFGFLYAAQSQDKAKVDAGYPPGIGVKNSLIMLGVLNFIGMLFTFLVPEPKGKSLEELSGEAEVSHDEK
Description: two-hybrid.

For experiment [2], the target named is AtSAR1b-S11 (Arabidopsis thaliana) (UniProt Q01474). Briefly: split reporter.
The target of experiment [3] is AtSAR1b[T34N]-S11 (Arabidopsis thaliana) (UniProt Q01474). Description: split reporter.
In experiment [4] the target is AtSEC13a-S11 (Arabidopsis thaliana) (UniProt Q9SRI1). Description: split reporter.
Experiment [5] concerns the target T2, AtSEC16a-S11 (Arabidopsis thaliana) (UniProt Q9FGK9).
T2 sequence: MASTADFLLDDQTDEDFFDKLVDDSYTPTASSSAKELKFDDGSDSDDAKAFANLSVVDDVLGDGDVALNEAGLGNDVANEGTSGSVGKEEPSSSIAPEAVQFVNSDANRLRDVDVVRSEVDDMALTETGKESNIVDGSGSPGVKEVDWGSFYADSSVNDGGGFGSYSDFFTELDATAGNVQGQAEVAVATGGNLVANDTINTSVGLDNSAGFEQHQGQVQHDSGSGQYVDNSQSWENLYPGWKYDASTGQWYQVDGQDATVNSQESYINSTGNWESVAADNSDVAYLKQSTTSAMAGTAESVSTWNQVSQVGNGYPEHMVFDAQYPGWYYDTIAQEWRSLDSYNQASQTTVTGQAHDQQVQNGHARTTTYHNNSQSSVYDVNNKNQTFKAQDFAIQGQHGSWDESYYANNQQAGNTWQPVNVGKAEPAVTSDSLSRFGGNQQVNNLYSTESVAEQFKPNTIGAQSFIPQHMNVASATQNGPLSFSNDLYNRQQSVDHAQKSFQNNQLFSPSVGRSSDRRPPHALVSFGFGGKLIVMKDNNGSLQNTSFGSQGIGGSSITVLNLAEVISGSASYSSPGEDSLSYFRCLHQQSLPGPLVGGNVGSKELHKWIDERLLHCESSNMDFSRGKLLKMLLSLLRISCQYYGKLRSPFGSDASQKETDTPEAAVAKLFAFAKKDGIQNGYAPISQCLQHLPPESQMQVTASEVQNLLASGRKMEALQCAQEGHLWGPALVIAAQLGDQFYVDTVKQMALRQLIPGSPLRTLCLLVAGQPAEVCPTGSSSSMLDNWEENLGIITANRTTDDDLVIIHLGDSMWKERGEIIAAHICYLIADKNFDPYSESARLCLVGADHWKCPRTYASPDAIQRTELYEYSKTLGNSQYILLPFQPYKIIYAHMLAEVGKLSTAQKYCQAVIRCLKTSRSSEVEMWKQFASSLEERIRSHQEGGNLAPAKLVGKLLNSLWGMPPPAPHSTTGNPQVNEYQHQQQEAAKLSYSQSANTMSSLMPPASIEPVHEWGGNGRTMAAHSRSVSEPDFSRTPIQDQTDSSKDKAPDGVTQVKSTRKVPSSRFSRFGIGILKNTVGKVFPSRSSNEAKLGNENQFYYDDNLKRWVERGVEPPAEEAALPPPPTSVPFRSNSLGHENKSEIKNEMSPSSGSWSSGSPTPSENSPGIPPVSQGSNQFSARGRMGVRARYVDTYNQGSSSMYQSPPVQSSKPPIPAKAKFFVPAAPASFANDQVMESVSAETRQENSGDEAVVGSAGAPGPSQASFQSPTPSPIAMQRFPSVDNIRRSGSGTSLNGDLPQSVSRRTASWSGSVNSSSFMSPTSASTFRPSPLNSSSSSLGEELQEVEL
Description: split reporter.

Experiment [6] deals with T3, AtSEC24a-S11 (Arabidopsis thaliana) (UniProt Q9SFU0).
T3 sequence: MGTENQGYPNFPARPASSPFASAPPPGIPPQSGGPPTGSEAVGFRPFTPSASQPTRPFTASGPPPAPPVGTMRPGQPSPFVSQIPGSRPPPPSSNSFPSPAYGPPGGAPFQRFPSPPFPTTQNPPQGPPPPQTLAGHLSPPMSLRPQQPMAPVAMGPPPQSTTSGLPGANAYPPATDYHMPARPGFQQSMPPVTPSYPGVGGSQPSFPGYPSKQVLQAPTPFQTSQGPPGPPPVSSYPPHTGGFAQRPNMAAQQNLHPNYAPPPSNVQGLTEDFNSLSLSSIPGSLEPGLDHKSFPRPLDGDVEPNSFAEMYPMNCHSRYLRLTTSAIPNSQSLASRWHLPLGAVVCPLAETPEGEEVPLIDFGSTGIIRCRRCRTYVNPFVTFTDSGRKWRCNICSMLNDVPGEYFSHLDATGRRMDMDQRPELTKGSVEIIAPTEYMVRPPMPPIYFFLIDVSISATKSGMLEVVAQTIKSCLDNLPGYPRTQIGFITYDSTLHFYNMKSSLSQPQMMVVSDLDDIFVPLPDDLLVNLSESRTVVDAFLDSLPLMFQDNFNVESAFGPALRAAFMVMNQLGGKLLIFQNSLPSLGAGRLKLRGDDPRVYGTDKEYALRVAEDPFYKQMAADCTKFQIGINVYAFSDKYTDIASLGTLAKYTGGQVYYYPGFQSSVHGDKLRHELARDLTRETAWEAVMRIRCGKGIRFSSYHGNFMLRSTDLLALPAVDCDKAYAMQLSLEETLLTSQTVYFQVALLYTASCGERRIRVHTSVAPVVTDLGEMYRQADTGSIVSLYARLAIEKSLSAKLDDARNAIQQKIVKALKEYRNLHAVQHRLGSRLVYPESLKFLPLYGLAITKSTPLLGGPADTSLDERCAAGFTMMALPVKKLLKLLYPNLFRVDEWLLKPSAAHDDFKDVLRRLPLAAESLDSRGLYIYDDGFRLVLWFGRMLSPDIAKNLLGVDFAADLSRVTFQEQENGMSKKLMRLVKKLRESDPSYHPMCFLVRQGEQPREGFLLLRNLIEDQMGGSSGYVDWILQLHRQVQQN
Description: split reporter.

The target in experiment [7] is AtSAR1b[H74L]-CFP (Arabidopsis thaliana) (UniProt Q01474). Description: co-IP.

No constants are given. Whether binding was seen depends on the method and setting. For some assays here: Binding seen in cells or lysates may run through a third protein. Some entries that bind do so weakly or less than the wild type.

In the case of AtOCT1-NubG (from UniProt Q9CAT6 1-539), the binding result in experiment [1] is on record as “no binding”. Turning to “S10-AtPHF1 N (from UniProt Q8GYE0 1-337) (domain or fragment)”, the binding result in experiment [2] and in experiment [3] was “binds” throughout.

B1: S10-AtSEC12 (protein, UniProt Q39221 1-393)
chain: MANQSTETNQPSNMQTYGVPIYAADWIPEVDVRSKIIMDPEKSEDDDESSSSSSSSRSCIVLSGGGGEGRSGISNVILICRVDLNTNSLSEQPLGRLVVGSDLPYRMAVHPREGGLICALPNSCKLFHWEDIMSREDNQAGESEEVIKELRDVGQQLALAFNPEGSVLAAGAEDGTLRVFKWPSMNTLLNESQAHSSVKCLTFSESGQFLVSLGGPVCRVWDVNASAAVASLSKEKDEMFASCRFSVDSAGNEVLYIAANTERGGSIITCDTKLWKRKWSKPIKKNSISAFNVSADGKLLAIGTLEGDVLILESTRMQTIQVVKKAHLGLVTALTFSPDSRGLVSVSFDSRARLTMIEQKGDKPGVRWWLLVLLIVLLYVVAYYYMKAKGIIP
With B1, in experiment [3], the binding result is reported as “binds”.

B2: S10-AtPHF1 (protein, UniProt Q8GYE0 1-398)
chain: MEIEEASRESGHVVCGSWIRRPKKVNWVLIAKASKRRGSSVSSPALLNIFSFDPITASLSSSPLATHTLKDSDGDPVAVSVHPGGDYFVCSTSKGGCKLFELVGGATGITILAKELLPLQNAGLQKCMAFSFDGSKLAVGGVDGCLRIMEWPNLSVILDEPKAHKSIRDMDFSLDSEFLATTSTDGSARIWKAEDGFPLSTLERSGDENIELCRFSKDGTKPFLFCAAQRGDTPMVNVYDISTWKKLGFKKLSRKTASTMAVSLDGKYIALGGKDGDVSVAEVKTMEIYHYSKRLHLGQSIASLEFCPSERVMLTTSSEWGEMVTKLTVPKEWKEWQIYALLFCLFMASVIAAYVFFENSDSFWKLPMGKDQKRPKISLFGGSSSTPSEDHSRWNLDL
Take B2: the binding result in experiment [3] is given as “binds”; in experiment [4], “no binding”; in experiment [5], “no binding”; in experiment [6], “no binding”.

B3: AtPHF1-NubG (protein, UniProt Q8GYE0 1-398)
chain: B2 chain
Regarding B3, in experiment [1], the binding result was “binds”.

B4: endogenous AtPHF1 (protein, UniProt Q8GYE0 1-398)
chain: B2 chain
Turning to B4, the binding result in experiment [7] is given as “binds”.

B5: NubG-AtCNIH5 (protein, UniProt Q9SZ74 1-135)
chain: MGDLLDWIISFLFLATLIIIVIYQLTCLADLEFDRINPYDVSSRINRMVLPEFGLQGLLCLYYILTGHWFMAVLSLPHLFYNIRLYMKREHLADVTELYNTNKWEQKKRVYKIGHIALSIFITTYWLIHSALGDI
On to B5, for which the binding result in experiment [1] is recorded as “binds”.
